# Laboratory results from the supplement of paper PMC8728848.
# Some of the results follow.
# Columns and labels:
# Assay in all cases: glycan array binding signal (z-score within array); higher = stronger binding
# Details in all cases: glycan notation: IUPAC condensed, linker removed
# [1] = test system: GlcNAc(b1-2)Man(a1-3)[GlcNAc(b1-2)Man(a1-6)]Man(b1-4)GlcNAc(b1-4)GlcNAc
# How it was run: (§1)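 Arrays were curated from the Consortium for Functional Glycomics database, 3228 in total, and kept only where the protein sequence was available. Binding is expressed as a within-array Z-score. This score was averaged across arrays of the same protein sequence at different concentrations or buffers and across linkers, and negative values can be read as non-binding.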
# [2] = test system: GlcNAc(b1-2)Man(a1-3)[GlcNAc(b1-2)Man(a1-6)]Man(b1-4)GlcNAc(b1-4)[Fuc(a1-6)]GlcNAc
# How it was run: as §1
# [3] = test system: GlcNAc(b1-2)Man(a1-3)[GlcNAc(b1-4)][GlcNAc(b1-2)Man(a1-6)]Man(b1-4)GlcNAc(b1-4)GlcNAc
# How it was run: as §1
# [4] = test system: GlcNAc(b1-2)[GlcNAc(b1-4)]Man(a1-3)[GlcNAc(b1-2)Man(a1-6)]Man(b1-4)GlcNAc(b1-4)GlcNAc
# How it was run: as §1
# [5] = test system: GlcNAc(b1-2)[GlcNAc(b1-4)]Man(a1-3)[GlcNAc(b1-4)][GlcNAc(b1-2)Man(a1-6)]Man(b1-4)GlcNAc(b1-4)GlcNAc
# How it was run: as §1
# [6] = test system: GlcNAc(b1-2)[GlcNAc(b1-4)]Man(a1-3)[GlcNAc(b1-4)][GlcNAc(b1-2)[GlcNAc(b1-6)]Man(a1-6)]Man(b1-4)GlcNAc(b1-4)GlcNAc
# How it was run: as §1
# [7] = test system: GlcNAc(b1-2)[GlcNAc(b1-4)]Man(a1-3)[GlcNAc(b1-4)][GlcNAc(b1-2)[GlcNAc(b1-6)]Man(a1-6)]Man(b1-4)GlcNAc(b1-4)[Fuc(a1-6)]GlcNAc
# How it was run: as §1
# [8] = test system: GlcNAc(b1-2)[GlcNAc(b1-6)]Man(a1-6)[GlcNAc(b1-2)Man(a1-3)]Man(b1-4)GlcNAc(b1-4)GlcNAc
# How it was run: as §1
# [9] = test system: GlcNAc(b1-2)[GlcNAc(b1-6)]Man(a1-6)[GlcNAc(b1-2)Man(a1-3)]Man(b1-4)GlcNAc(b1-4)[Fuc(a1-6)]GlcNAc
# How it was run: as §1
# [10] = test system: GlcNAc(b1-2)[GlcNAc(b1-6)]Man(a1-6)[GlcNAc(b1-2)Man(a1-3)][GlcNAc(b1-4)]Man(b1-4)GlcNAc(b1-4)GlcNAc
# How it was run: as §1
# [11] = test system: GlcNAc(b1-3)Gal(b1-3)GalNAc
# How it was run: as §1
# [12] = test system: GlcNAc(b1-3)Gal(b1-4)GlcNAc(b1-3)Gal(b1-4)GlcNAc
# How it was run: as §1
# [13] = test system: GlcNAc(b1-3)Gal(b1-4)GlcNAc
# How it was run: as §1
# GlcNAc(b1-3)Gal(b1-4)Glc = test system: GlcNAc(b1-3)Gal(b1-4)Glc
# How it was run: as §1
# GlcNAc(b1-3)GalNAc = test system: GlcNAc(b1-3)GalNAc
# How it was run: as §1
# GlcNAc(b1-3)Gal = test system: GlcNAc(b1-3)Gal
# How it was run: as §1
# GlcNAc(b1-3)Man = test system: GlcNAc(b1-3)Man
# How it was run: as §1
# [14] = test system: GlcNAc(b1-3)[GlcNAc(b1-4)][GlcNAc(b1-6)]GlcNAc
# How it was run: as §1
# [15] = test system: GlcNAc(b1-3)[GlcNAc(b1-6)]Gal(b1-4)GlcNAc
# How it was run: as §1
# [16] = test system: GlcNAc(b1-3)[GlcNAc(b1-6)]GalNAc
# How it was run: as §1
# [17] = test system: GlcNAc(b1-4)Gal(b1-4)GlcNAc
# How it was run: as §1
# [18] = test system: GlcNAc(b1-4)GlcNAc(b1-4)GlcNAc(b1-4)GlcNAc(b1-4)GlcNAc(b1-4)GlcNAc
# How it was run: as §1
# [19] = test system: GlcNAc(b1-4)GlcNAc(b1-4)GlcNAc(b1-4)GlcNAc(b1-4)GlcNAc
# How it was run: as §1
# [20] = test system: GlcNAc(b1-4)GlcNAc(b1-4)GlcNAc
# How it was run: as §1
# GlcNAc(b1-4)GlcNAc = test system: GlcNAc(b1-4)GlcNAc
# How it was run: as §1
# [21] = test system: GlcNAc(b1-4)[GlcNAc(b1-6)]GalNAc
# How it was run: as §1
# [22] = test system: GlcNAc(b1-6)Gal(b1-4)GlcNAc
# How it was run: as §1
# GlcNAc(b1-6)GalNAc = test system: GlcNAc(b1-6)GalNAc
# How it was run: as §1
# GlcNAc3Prop(b1-4)GlcNAc = test system: GlcNAc3Prop(b1-4)GlcNAc
# How it was run: as §1
# [23] = test system: GlcNAc6S(b1-3)Gal(b1-4)GlcNAc
# How it was run: as §1
# Kdn(a2-3)Gal(b1-3)GalNAc = test system: Kdn(a2-3)Gal(b1-3)GalNAc
# How it was run: as §1
# Kdn(a2-3)Gal(b1-3)GlcNAc = test system: Kdn(a2-3)Gal(b1-3)GlcNAc
# How it was run: as §1
# Kdn(a2-3)Gal(b1-4)GlcNAc = test system: Kdn(a2-3)Gal(b1-4)GlcNAc
# How it was run: as §1
# Kdn(a2-3)Gal(b1-4)Glc = test system: Kdn(a2-3)Gal(b1-4)Glc
# How it was run: as §1
# [24] = test system: Kdn(a2-3)Gal(b1-4)[Fuc(a1-3)]GlcNAc
# How it was run: as §1
# Kdn(a2-6)Gal(b1-4)GlcNAc = test system: Kdn(a2-6)Gal(b1-4)GlcNAc
# How it was run: as §1
# [25] = test system: Man(a1-2)Man(a1-2)Man(a1-3)Man
# How it was run: as §1
# [26] = test system: Man(a1-2)Man(a1-2)Man(a1-6)[Man(a1-3)]Man
# How it was run: as §1
# Man(a1-2)Man(a1-3)Man = test system: Man(a1-2)Man(a1-3)Man
# How it was run: as §1
# [27] = test system: Man(a1-2)Man(a1-3)[Man(a1-2)Man(a1-6)]Man(a1-6)[Man(a1-2)Man(a1-2)Man(a1-3)]Man(b1-4)GlcNAc(b1-4)GlcNAc
# How it was run: as §1
# [28] = test system: Man(a1-2)Man(a1-3)[Man(a1-2)Man(a1-6)]Man(a1-6)[Man(a1-2)Man(a1-2)Man(a1-3)]Man
# How it was run: as §1
# [29] = test system: Man(a1-2)Man(a1-3)[Man(a1-2)Man(a1-6)]Man
# How it was run: as §1
# [30] = test system: Man(a1-2)Man(a1-3)[Man(a1-6)]Man(a1-6)[Man(a1-2)Man(a1-3)]Man(b1-4)GlcNAc(b1-4)GlcNAc
# How it was run: as §1
# [31] = test system: Man(a1-2)Man(a1-6)[Man(a1-3)]Man(a1-6)[Man(a1-2)Man(a1-2)Man(a1-3)]Man(b1-4)GlcNAc(b1-4)GlcNAc
# How it was run: as §1
# [32] = test system: Man(a1-2)Man(a1-6)[Man(a1-3)]Man(a1-6)[Man(a1-2)Man(a1-2)Man(a1-3)]Man
# How it was run: as §1
# [33] = test system: Man(a1-3)[Man(a1-6)]Man(a1-6)[Man(a1-2)Man(a1-3)]Man(b1-4)GlcNAc(b1-4)GlcNAc
# How it was run: as §1
# [34] = test system: Man(a1-3)[Man(a1-6)]Man(a1-6)[Man(a1-3)]Man(b1-4)GlcNAc(b1-4)GlcNAc
# How it was run: as §1
# [35] = test system: Man(a1-3)[Man(a1-6)]Man(a1-6)[Man(a1-3)]Man
# How it was run: as §1
# [36] = test system: Man(a1-3)[Man(a1-6)]Man(b1-4)GlcNAc(b1-4)GlcNAc
# How it was run: as §1
# [37] = test system: Man(a1-3)[Man(a1-6)]Man(b1-4)GlcNAc(b1-4)[Fuc(a1-6)]GlcNAc
# How it was run: as §1
# Man(a1-3)[Man(a1-6)]Man = test system: Man(a1-3)[Man(a1-6)]Man
# How it was run: as §1
# Man(a1-6)Man = test system: Man(a1-6)Man
# How it was run: as §1
substance,measurement,setting,value
"Wza (Escherichia coli), P0A930",glycan array binding signal (z-score),[1],0.515
same,glycan array binding signal (z-score),[2],0.698
same,glycan array binding signal (z-score),[3],-1.18
same,glycan array binding signal (z-score),[4],1.34
same,glycan array binding signal (z-score),[5],-1.18
same,glycan array binding signal (z-score),[6],-0.183
same,glycan array binding signal (z-score),[7],0.238
same,glycan array binding signal (z-score),[8],0.119
same,glycan array binding signal (z-score),[9],-0.503
same,glycan array binding signal (z-score),[10],0.046
same,glycan array binding signal (z-score),[11],1.95
same,glycan array binding signal (z-score),[12],-0.704
same,glycan array binding signal (z-score),[13],0.697
same,glycan array binding signal (z-score),GlcNAc(b1-3)Gal(b1-4)Glc,-0.11
same,glycan array binding signal (z-score),GlcNAc(b1-3)GalNAc,-0.25
same,glycan array binding signal (z-score),GlcNAc(b1-3)Gal,0.004
same,glycan array binding signal (z-score),GlcNAc(b1-3)Man,0
same,glycan array binding signal (z-score),[14],-0.187
same,glycan array binding signal (z-score),[15],3.12
same,glycan array binding signal (z-score),[16],-0.007
same,glycan array binding signal (z-score),[17],0.402
same,glycan array binding signal (z-score),[18],-0.076
same,glycan array binding signal (z-score),[19],0.184
same,glycan array binding signal (z-score),[20],-0.546
same,glycan array binding signal (z-score),GlcNAc(b1-4)GlcNAc,-0.042
same,glycan array binding signal (z-score),[21],2.4
same,glycan array binding signal (z-score),[22],-0.003
same,glycan array binding signal (z-score),GlcNAc(b1-6)GalNAc,0.32
same,glycan array binding signal (z-score),GlcNAc3Prop(b1-4)GlcNAc,0.521
same,glycan array binding signal (z-score),[23],-2
same,glycan array binding signal (z-score),Kdn(a2-3)Gal(b1-3)GalNAc,-0.819
same,glycan array binding signal (z-score),Kdn(a2-3)Gal(b1-3)GlcNAc,0.313
same,glycan array binding signal (z-score),Kdn(a2-3)Gal(b1-4)GlcNAc,0.8
same,glycan array binding signal (z-score),Kdn(a2-3)Gal(b1-4)Glc,-0.674
same,glycan array binding signal (z-score),[24],-0.783
same,glycan array binding signal (z-score),Kdn(a2-6)Gal(b1-4)GlcNAc,1.66
same,glycan array binding signal (z-score),[25],2.8
same,glycan array binding signal (z-score),[26],-0.801
same,glycan array binding signal (z-score),Man(a1-2)Man(a1-3)Man,0.737
same,glycan array binding signal (z-score),[27],-0.23
same,glycan array binding signal (z-score),[28],-0.236
same,glycan array binding signal (z-score),[29],-0.253
same,glycan array binding signal (z-score),[30],-0.709
same,glycan array binding signal (z-score),[31],-0.481
same,glycan array binding signal (z-score),[32],0.83
same,glycan array binding signal (z-score),[33],0.776
same,glycan array binding signal (z-score),[34],-0.362
same,glycan array binding signal (z-score),[35],-0.413
same,glycan array binding signal (z-score),[36],-1.05
same,glycan array binding signal (z-score),[37],-1.88
same,glycan array binding signal (z-score),Man(a1-3)[Man(a1-6)]Man,1.81
same,glycan array binding signal (z-score),Man(a1-6)Man,-1.27

# Exported bar-delimited: entries from further up.
substance | measurement | setting | value
Wza (Escherichia coli), P0A930 | glycan array binding signal (z-score) | [6] | -0.183
same | glycan array binding signal (z-score) | [23] | -2
